From PubChem BioAssay AID248 (DTP/NCI, 2004)
The list shows only some results of the screen, not a fair sample: it is rich in T/C values a quarter to a half above the control, in often repeated tests (any T/C) and in doses without a T/C. Further doses and runs are listed elsewhere. T/C is the treated group as % of the vehicle group. Some entries give survivors of the animals treated and no T/C: the source files T/C as zero there, which appears to mark a toxic dose or a test without result, not a measured value. Some survivor counts are full or nearly so, which does not show that the dose was tolerated: the source hardly ever lists a survival T/C far under the control, and the zero likely stands for such cases as well. Counts of survivors are from the toxicity check (mostly the fifth day) where no day follows; animals may have died later. Schedule codes are those of the source, taken here to give the interval after Q, in days (D) or hours (H), and the number of doses after X. Some entries were tested several times; the results are listed from low to high. Some schedule codes hold Z or #, which are not explained here. For survival time, the PubChem record calls one and a half times the control and up active, and a quarter to a half above the control has no call in these data; cut-offs in other NCI protocols can differ. Some T/C values carry the count of animals alive at the toxicity check (mostly the fifth day); where none is given, no animal had died by that day.

Tested on: L1210 leukemia ip in BDF1 mice, survival T/C
Experiment: NCI In Vivo Anticancer Drug Screen. Data for tumor model L1210 Leukemia (intraperitoneal) in B6D2F1 (BDF1) mice
Settings: T/C endpoint: mean survival time, higher T/C = longer survival
[1] = dose: 400.0 mg/kg/injection, schedule: Q01DX009 (ip), vehicle: Klucel (hydroxypropylcellulose) (HPC)
[2] = dose: 100.0 mg/kg/injection, schedule: Q01DX001 (ip), vehicle: saline
[3] = dose: 200.0 mg/kg/injection, schedule: Q01DX001 (ip), vehicle: saline
[4] = dose: 400.0 mg/kg/injection, schedule: Q01DX001 (ip), vehicle: saline
[5] = dose: 20.0 mg/kg/injection, schedule: Q01DX Z (ip), vehicle: saline

With `CN1C(=O)CCS(=O)(=O)C1c1ccc(Cl)cc1` (centres undefined) the survivor count [1] was 6 of 6.

For `CCC[CH2][Sn]1([CH2]CCC)[O]C(=O)c2c(c(-c3ccccc3)c(-c3ccccc3)c(-c3ccccc3)c2-c2ccccc2)C(=O)[O]1`, the survivor count [2] was 0 of 4, the survivor count [3] was 0 of 4 and the survivor count [4] was 0 of 4.

For `CCOC(=O)Cc1cc(Cl)c2cc(C)ccc2n1`, the survivor count [2] was 6 of 6 and the survivor count [3] was 6 of 6.

For `Cc1ccc(Oc2cccc3c2CC[N+](C)(C)C3)cc1`, the survivor count (dose: 25.0 mg/kg/injection, schedule: Q01DX001 (ip), vehicle: Klucel (hydroxypropylcellulose) (HPC)) was 5 of 5, the survivor count (dose: 100.0 mg/kg/injection, schedule: Q01DX001 (ip), vehicle: Klucel (hydroxypropylcellulose) (HPC)) was 0 of 6 and the survivor count (dose: 200.0 mg/kg/injection, schedule: Q01DX001 (ip), vehicle: Klucel (hydroxypropylcellulose) (HPC)) was 1 of 6. For the same compound, the survivor count (dose: 400.0 mg/kg/injection, schedule: Q01DX001 (ip), vehicle: Klucel (hydroxypropylcellulose) (HPC)) was 0 of 6.

In the case of `CCOC1c2ccccc2-c2ccccc2N1C(=O)c1ccccc1` (centres undefined), the survivor count (dose: 100.0 mg/kg/injection, schedule: Q01DX009 (ip), vehicle: saline with Tween-80) is reported as 0 of 6, the survivor count (dose: 100.0 mg/kg/injection, schedule: Q04DX003 (ip), vehicle: saline with Tween-80) is reported as 6 of 6 and the survivor count (dose: 200.0 mg/kg/injection, schedule: Q01DX009 (ip), vehicle: saline with Tween-80) is reported as 6 of 6. For the same compound, the survivor count (dose: 400.0 mg/kg/injection, schedule: Q01DX009 (ip), vehicle: saline with Tween-80) was 6 of 6.

With `O=C1C=C(c2ccccc2)C(c2ccccc2)C1=O` (centres undefined) the survivor count (dose: 100.0 mg/kg/injection, schedule: Q04DX002 (ip), vehicle: Klucel (hydroxypropylcellulose) (HPC)) was 3 of 3.

With `COc1cc2c(cc1OC)/C(=N/N)CCC2` the survivor count (dose: 100.0 mg/kg/injection, schedule: Q04DX003 (ip), vehicle: Klucel (hydroxypropylcellulose) (HPC)) was 2 of 6 and the survivor count (dose: 200.0 mg/kg/injection, schedule: Q04DX003 (ip), vehicle: Klucel (hydroxypropylcellulose) (HPC)) was 0 of 6.

`C=C(CCCCCCCCCCCCCCCC)C(=O)O` was tested, and the survivor count (dose: 200.0 mg/kg/injection, schedule: Q04DX002 (ip), vehicle: saline with Tween-80) was 3 of 3.

With `CC(C)=C(c1ccc(Br)cc1)c1ccc(Br)cc1` the survivor count (dose: 200.0 mg/kg/injection, schedule: Q01DX009 (ip), vehicle: acetone) was 6 of 6 and the survivor count (dose: 400.0 mg/kg/injection, schedule: Q01DX009 (ip), vehicle: acetone) was 6 of 6.

In the case of `O=C(CCl)NCCCCCNC(=O)CCl`, the survivor count [1] is reported as 0 of 6.

With `ONc1nc(NO)c2[nH]cnc2n1` the T/C (dose: 0.5 mg/kg/injection, schedule: Q01DX009 (ip), vehicle: other) was 131 % of control, the T/C (dose: 0.93 mg/kg/injection, schedule: Q01DX009 (ip), vehicle: carboxymethylcellulose (CMC)) was 139 % of control and the T/C (dose: 1.0 mg/kg/injection, schedule: Q01DX009 (ip), vehicle: other) was 128 % of control. The T/C (dose: 1.25 mg/kg/injection, schedule: Q01DX009 (ip), vehicle: other) was 140 % of control, the T/C (dose: 1.85 mg/kg/injection, schedule: Q01DX009 (ip), vehicle: carboxymethylcellulose (CMC)) was 147 % of control and the T/C (dose: 2.5 mg/kg/injection, schedule: Q01DX009 (ip), vehicle: carboxymethylcellulose (CMC)) was 134 % of control [5 of 6 alive]. The T/C (dose: 3.7 mg/kg/injection, schedule: Q01DX009 (ip), vehicle: carboxymethylcellulose (CMC)) was 143 % of control, the T/C (dose: 5.0 mg/kg/injection, schedule: Q01DX009 (ip), vehicle: carboxymethylcellulose (CMC)) was 128 % of control and the T/C (dose: 7.5 mg/kg/injection, schedule: Q01DX009 (ip), vehicle: carboxymethylcellulose (CMC)) was 147 % of control. The T/C (dose: 15.0 mg/kg/injection, schedule: Q01DX009 (ip), vehicle: carboxymethylcellulose (CMC)) was 149 % of control, the T/C (dose: 37.5 mg/kg/injection, schedule: Q01DX009 (oral), vehicle: carboxymethylcellulose (CMC)) was 125 % of control and the T/C (dose: 50.0 mg/kg/injection, schedule: Q01DX009 (ip), vehicle: other) was 128 % of control. For the same compound, the T/C (dose: 120.0 mg/kg/injection, schedule: Q01DX009 (ip), vehicle: carboxymethylcellulose (CMC)) was 143 % of control and the T/C (dose: 150.0 mg/kg/injection, schedule: Q01DX009 (oral), vehicle: carboxymethylcellulose (CMC)) was 132 % of control.

For `CN1C(C)(C)CC(O)(C(O)(c2ccccc2)c2ccccc2)CC1(C)C`, the survivor count (dose: 200.0 mg/kg/injection, schedule: Q04DX003 (ip), vehicle: acetone) was 0 of 6 and the survivor count (dose: 400.0 mg/kg/injection, schedule: Q04DX003 (ip), vehicle: acetone) was 0 of 6.

In the case of `O=NC1C(Cl)C2CC1C1CCCC21` (centres undefined), the survivor count (dose: 100.0 mg/kg/injection, schedule: Q01DX009 (ip), vehicle: Klucel (hydroxypropylcellulose) (HPC)) is reported as 6 of 6.

In the case of `COC1C(CO)OC(n2cnc3c(=S)nc(N)[nH]c32)C1O` (centres undefined), the T/C (dose: 100.0 mg/kg/injection, schedule: Q01DX009 (ip), vehicle: carboxymethylcellulose (CMC)) is reported as 142 % of control, the T/C (dose: 177.0 mg/kg/injection, schedule: Q01DX001 (ip), vehicle: carboxymethylcellulose (CMC)) is reported as 125 % of control and the T/C (dose: 200.0 mg/kg/injection, schedule: Q01DX001 (ip), vehicle: carboxymethylcellulose (CMC)) is reported as 132 % of control. For the same compound, the T/C (dose: 200.0 mg/kg/injection, schedule: Q01DX005 (ip), vehicle: saline) was 135 and 142 % of control, the T/C (dose: 266.0 mg/kg/injection, schedule: Q01DX001 (ip), vehicle: carboxymethylcellulose (CMC)) was 144 % of control and the T/C (dose: 600.0 mg/kg/injection, schedule: Q01DX001 (ip), vehicle: carboxymethylcellulose (CMC)) was 144 % of control.

In the case of `Ic1cccc2cc3cccc[n+]3cc12`, the survivor count (dose: 33.0 mg/kg/injection, schedule: Q01DX Z (ip), vehicle: carboxymethylcellulose (CMC)) is reported as 5 of 6.

For `CC(=O)NC1=C(N2CC2C)C(=O)C(NC(C)=O)=C(N2CC2C)C1=O` (centres undefined), the survivor count (dose: 1.25 mg/kg/injection, schedule: Q01DX009 (ip), vehicle: saline) was 5 of 6, the survivor count (dose: 2.5 mg/kg/injection, schedule: Q01DX009 (ip), vehicle: saline) was 6 of 6 and the T/C (dose: 2.5 mg/kg/injection, schedule: Q01DX Z (ip), vehicle: saline) was 142 % of control. For the same compound, the survivor count (dose: 5.0 mg/kg/injection, schedule: Q01DX009 (ip), vehicle: saline) was 6 of 6, the survivor count (dose: 10.0 mg/kg/injection, schedule: Q01DX009 (ip), vehicle: saline) was 6 of 6 and the T/C (dose: 10.0 mg/kg/injection, schedule: Q01DX Z (ip), vehicle: saline) was 136 % of control. For the same compound, the survivor count (dose: 19.0 mg/kg/injection, schedule: Q01DX009 (ip), vehicle: saline) was 3 of 6 and 5 of 6, the T/C [5] was 127 % of control and the survivor count [5] was 6 of 6. For the same compound, the survivor count (dose: 35.0 mg/kg/injection, schedule: Q01DX009 (ip), vehicle: saline) was 6 of 6, the survivor count (dose: 37.5 mg/kg/injection, schedule: Q01DX009 (ip), vehicle: saline) was 2 of 6 and the survivor count (dose: 38.0 mg/kg/injection, schedule: Q01DX009 (ip), vehicle: saline) was 4 of 6. The survivor count (dose: 40.0 mg/kg/injection, schedule: Q01DX Z (ip), vehicle: other) was 5 of 6, the survivor count (dose: 40.0 mg/kg/injection, schedule: Q01DX Z (ip), vehicle: saline) was 3 of 6 and 6 of 6 and the survivor count (dose: 60.0 mg/kg/injection, schedule: Q01DX Z (ip), vehicle: other) was 6 of 6. For the same compound, the survivor count (dose: 75.0 mg/kg/injection, schedule: Q01DX009 (ip), vehicle: saline) was 5 of 6, the survivor count (dose: 80.0 mg/kg/injection, schedule: Q01DX Z (ip), vehicle: saline) was 4 of 6 and the survivor count (dose: 90.0 mg/kg/injection, schedule: Q01DX Z (ip), vehicle: other) was 3 of 6. The survivor count (dose: 135.0 mg/kg/injection, schedule: Q01DX Z (ip), vehicle: other) was 0 of 6, the survivor count (dose: 150.0 mg/kg/injection, schedule: Q01DX009 (ip), vehicle: saline) was 1 of 6 and 2 of 6 and the survivor count [3] was 1 of 6. The survivor count (dose: 300.0 mg/kg/injection, schedule: Q01DX001 (ip), vehicle: saline) was 1 of 6, the survivor count (dose: 300.0 mg/kg/injection, schedule: Q01DX009 (ip), vehicle: saline) was 0 of 6 and the survivor count [4] was 0 of 6.
